The other results are listed elsewhere or left out.
compound: NCC(=O)Nc1ccc(-n2nc(C(F)(F)F)cc2-c2ccc3c(ccc4ccccc43)c2)cc1; experiment: log2 fold change, soluble protein after heating vs DMSO (PISA); higher = thermal stabilisation; K562 lysate, 10 uM; active = over 0.2 and 3.5 SD of the protein, either way, in both replicates (recomputed)
Summary of the method: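 Soluble protein was defined as the supernatant remaining after 21,000xg for 90 min, following pooling of heated aliquots and adjustment to 0.5% NP-40 at 4°C. Before that, crude K562 extract at 1 mg/mL protein in PBS pH 7.4 with 1 mM MgCl2 was treated with 10 μM compound for 30 min and heated for 3 min across 48°C-58°C. Quantification used TMTpro 16plex LC-MS/MS with channel sums equalised, and values are log-two fold changes in thermal stability relative to solvent controls from duplicates.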

Sequences of proteins named here, by UniProt entry; tags and fusion partners are left off. A change or cut given only in a name is not applied to a line headed by its entry.
UniProt O43909: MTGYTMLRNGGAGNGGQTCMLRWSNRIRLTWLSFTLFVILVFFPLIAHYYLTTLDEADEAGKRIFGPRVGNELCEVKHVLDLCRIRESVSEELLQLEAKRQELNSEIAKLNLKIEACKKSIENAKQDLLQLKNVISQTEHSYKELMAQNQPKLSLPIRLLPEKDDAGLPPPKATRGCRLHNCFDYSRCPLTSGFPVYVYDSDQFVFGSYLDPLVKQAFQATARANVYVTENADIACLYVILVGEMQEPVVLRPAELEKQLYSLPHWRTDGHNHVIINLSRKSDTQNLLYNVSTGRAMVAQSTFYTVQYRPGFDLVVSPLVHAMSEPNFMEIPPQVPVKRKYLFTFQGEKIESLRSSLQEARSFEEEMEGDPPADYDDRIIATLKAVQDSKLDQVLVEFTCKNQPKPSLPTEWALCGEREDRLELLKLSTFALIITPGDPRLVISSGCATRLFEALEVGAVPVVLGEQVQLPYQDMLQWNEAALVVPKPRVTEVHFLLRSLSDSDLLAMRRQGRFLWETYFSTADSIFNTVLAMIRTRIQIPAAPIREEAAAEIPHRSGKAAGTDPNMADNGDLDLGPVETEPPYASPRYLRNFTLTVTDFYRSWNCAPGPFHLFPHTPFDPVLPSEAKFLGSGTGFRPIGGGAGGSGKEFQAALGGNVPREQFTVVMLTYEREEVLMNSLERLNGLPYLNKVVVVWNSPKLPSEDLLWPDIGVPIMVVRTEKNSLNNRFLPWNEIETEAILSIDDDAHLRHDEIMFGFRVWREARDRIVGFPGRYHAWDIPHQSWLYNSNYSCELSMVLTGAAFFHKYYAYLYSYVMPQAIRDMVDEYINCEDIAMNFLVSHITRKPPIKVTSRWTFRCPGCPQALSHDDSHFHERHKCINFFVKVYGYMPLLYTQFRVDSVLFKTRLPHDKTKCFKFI
UniProt Q99504: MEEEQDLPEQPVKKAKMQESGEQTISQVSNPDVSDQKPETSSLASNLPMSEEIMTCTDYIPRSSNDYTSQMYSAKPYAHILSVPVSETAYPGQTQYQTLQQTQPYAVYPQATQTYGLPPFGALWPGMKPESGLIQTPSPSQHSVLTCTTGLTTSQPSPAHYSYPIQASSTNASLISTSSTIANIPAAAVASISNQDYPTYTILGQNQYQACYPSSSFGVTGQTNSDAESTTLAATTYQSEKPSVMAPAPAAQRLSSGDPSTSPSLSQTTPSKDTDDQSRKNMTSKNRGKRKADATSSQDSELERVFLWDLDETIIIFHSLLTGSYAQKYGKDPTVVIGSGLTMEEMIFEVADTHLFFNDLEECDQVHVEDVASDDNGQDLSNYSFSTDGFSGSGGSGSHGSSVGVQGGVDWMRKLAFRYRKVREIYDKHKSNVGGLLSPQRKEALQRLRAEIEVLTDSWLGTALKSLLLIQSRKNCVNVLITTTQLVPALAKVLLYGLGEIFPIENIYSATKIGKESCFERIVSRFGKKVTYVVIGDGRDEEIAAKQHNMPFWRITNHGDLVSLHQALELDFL
UniProt Q96PV7: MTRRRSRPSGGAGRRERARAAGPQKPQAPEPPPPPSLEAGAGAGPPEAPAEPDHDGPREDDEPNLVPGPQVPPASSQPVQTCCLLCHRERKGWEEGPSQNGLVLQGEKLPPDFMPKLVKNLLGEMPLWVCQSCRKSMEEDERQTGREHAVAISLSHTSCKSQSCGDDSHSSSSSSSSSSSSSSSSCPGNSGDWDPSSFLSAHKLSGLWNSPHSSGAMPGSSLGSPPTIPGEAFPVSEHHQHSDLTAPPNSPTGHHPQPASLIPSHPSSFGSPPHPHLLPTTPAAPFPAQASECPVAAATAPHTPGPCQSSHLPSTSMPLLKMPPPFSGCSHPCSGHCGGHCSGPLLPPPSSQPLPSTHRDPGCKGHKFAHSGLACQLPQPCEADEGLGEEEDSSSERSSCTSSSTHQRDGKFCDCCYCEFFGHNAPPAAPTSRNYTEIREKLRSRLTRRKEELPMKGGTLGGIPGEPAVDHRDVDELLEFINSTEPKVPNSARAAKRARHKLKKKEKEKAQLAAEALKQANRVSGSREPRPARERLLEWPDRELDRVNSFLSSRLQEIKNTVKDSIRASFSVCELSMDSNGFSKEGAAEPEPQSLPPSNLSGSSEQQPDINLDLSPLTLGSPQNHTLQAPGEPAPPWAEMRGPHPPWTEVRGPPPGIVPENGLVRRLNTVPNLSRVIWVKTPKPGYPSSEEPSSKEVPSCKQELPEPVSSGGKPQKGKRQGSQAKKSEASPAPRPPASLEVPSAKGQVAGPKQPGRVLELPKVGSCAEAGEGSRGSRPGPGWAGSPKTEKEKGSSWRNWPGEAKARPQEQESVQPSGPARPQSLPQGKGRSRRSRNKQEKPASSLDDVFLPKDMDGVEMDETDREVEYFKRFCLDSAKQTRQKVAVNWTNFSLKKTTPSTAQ
UniProt Q13158: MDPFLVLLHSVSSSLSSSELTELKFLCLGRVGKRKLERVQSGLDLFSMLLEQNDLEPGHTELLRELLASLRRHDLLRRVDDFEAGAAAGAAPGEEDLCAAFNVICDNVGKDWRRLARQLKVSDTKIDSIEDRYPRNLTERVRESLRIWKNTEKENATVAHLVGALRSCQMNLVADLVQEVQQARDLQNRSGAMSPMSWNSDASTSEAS
UniProt Q96GK7: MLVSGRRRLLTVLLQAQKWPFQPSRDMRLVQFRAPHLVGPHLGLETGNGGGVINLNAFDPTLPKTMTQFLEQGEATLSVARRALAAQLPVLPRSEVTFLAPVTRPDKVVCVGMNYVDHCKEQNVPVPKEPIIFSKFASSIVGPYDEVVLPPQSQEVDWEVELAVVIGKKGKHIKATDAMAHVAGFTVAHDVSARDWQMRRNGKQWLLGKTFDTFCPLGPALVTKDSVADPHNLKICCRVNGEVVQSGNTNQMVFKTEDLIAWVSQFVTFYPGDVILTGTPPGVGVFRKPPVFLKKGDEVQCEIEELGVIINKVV
UniProt P43268: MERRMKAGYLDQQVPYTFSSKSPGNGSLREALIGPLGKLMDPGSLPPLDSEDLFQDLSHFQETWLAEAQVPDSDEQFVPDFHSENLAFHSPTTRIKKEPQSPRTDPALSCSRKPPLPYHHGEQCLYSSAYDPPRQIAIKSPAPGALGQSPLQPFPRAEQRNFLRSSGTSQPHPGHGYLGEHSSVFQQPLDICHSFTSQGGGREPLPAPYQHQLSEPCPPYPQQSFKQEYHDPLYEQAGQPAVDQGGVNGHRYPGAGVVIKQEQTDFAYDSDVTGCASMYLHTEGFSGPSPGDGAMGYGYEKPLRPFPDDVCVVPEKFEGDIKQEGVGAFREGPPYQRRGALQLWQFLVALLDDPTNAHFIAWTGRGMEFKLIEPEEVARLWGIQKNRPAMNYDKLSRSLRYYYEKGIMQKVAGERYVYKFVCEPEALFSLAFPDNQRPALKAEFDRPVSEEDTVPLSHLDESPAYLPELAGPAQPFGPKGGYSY
UniProt Q6IPR1: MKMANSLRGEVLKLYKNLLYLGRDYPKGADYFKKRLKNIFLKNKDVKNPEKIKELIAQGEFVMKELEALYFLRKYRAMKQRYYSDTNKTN
UniProt Q9UQ84: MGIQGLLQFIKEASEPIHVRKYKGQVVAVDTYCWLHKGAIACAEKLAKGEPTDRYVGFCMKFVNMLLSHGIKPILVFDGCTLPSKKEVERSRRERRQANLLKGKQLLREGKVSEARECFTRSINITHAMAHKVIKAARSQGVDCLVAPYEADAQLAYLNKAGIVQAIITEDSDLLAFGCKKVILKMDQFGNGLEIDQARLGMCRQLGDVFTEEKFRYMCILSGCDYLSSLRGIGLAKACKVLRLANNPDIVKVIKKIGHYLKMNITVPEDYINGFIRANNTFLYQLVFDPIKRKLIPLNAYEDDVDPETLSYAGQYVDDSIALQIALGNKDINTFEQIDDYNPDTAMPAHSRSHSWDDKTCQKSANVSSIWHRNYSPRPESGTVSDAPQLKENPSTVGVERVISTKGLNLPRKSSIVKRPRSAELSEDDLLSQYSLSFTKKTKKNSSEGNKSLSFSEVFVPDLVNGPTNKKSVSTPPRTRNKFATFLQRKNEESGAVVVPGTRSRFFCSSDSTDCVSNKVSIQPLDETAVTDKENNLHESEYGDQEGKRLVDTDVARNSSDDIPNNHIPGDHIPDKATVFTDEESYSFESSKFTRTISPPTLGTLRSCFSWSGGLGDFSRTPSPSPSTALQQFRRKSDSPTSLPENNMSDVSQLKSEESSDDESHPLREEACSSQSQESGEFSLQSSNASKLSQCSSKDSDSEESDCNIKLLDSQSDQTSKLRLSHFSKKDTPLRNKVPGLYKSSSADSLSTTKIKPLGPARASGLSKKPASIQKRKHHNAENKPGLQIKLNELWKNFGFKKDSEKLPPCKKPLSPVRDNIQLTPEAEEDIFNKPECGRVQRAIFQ
UniProt Q15024, whole entry, looked up: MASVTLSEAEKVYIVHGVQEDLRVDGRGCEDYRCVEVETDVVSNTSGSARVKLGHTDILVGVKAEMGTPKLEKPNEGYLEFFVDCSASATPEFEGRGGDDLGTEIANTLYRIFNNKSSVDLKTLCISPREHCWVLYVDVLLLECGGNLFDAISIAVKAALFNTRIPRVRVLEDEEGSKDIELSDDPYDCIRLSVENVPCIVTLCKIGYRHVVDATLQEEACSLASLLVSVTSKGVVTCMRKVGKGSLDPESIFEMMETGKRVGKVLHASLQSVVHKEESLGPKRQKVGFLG
UniProt Q6P1L5: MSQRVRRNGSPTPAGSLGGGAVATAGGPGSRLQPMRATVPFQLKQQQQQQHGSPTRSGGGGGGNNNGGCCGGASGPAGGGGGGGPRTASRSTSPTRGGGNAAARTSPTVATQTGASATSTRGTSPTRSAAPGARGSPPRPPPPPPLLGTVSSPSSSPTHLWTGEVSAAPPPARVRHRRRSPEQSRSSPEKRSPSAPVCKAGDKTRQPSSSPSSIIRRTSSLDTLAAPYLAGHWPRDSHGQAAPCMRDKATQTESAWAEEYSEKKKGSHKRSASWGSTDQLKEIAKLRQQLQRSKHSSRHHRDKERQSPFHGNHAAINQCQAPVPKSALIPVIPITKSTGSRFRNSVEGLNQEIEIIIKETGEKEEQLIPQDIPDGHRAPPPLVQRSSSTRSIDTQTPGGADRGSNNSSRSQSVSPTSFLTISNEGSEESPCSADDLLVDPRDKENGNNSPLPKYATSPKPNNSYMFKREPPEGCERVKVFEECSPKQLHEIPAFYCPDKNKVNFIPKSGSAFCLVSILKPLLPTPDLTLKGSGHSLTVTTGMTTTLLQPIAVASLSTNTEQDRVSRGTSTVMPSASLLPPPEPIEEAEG
UniProt Q8IYI6: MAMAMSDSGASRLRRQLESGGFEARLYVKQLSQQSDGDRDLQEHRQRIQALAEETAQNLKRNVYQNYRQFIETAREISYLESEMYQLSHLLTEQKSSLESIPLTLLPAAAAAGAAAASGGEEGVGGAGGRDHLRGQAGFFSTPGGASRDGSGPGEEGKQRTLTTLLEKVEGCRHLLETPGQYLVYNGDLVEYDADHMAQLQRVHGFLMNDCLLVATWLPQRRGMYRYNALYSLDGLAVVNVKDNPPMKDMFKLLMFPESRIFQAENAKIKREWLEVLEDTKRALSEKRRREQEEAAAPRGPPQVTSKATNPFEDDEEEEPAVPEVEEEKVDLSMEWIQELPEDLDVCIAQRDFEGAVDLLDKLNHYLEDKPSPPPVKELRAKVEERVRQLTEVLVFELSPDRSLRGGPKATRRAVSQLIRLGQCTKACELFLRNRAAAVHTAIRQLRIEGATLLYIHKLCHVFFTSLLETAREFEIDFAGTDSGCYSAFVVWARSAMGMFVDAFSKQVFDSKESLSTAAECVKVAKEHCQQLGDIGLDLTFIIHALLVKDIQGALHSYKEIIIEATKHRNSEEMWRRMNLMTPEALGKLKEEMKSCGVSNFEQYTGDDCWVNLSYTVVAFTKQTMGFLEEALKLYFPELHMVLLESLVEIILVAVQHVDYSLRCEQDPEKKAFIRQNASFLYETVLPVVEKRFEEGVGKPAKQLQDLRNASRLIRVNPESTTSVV
UniProt Q8N0U4: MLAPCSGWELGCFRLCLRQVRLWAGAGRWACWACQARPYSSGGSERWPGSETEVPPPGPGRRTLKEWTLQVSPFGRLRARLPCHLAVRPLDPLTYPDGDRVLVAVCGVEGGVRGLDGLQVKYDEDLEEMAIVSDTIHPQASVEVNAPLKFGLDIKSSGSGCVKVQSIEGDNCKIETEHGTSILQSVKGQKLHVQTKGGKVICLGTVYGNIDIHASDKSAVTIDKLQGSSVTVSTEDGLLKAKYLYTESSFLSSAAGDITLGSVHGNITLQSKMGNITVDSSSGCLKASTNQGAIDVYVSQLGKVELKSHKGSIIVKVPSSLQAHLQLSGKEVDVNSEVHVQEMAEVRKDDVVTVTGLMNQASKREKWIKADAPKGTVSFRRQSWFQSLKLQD
UniProt Q96KR6: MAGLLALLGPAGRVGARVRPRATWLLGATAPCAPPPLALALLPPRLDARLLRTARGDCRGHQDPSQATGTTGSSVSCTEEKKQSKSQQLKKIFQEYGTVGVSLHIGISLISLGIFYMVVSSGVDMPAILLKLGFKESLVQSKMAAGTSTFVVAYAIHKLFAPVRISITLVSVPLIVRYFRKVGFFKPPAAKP

| Target | log2 fold change |
| --- | --- |
| EXOSC8 (UniProt Q96B26) | inactive: -0.055 |
| FAM32A (UniProt Q9Y421) | inactive: -0.005 |
| FAM76A isoform 3 (UniProt Q8TAV0) | inactive: 0.077 |
| FAM126A (UniProt Q9BYI3) | inactive: -0.085 |
| EXTL3 (UniProt O43909) | inactive: -0.104 |
| ETFA (UniProt P13804) | inactive: 0.032 |
| EYA3 (UniProt Q99504) | inactive: 0.03 |
| FAM72C (UniProt H0Y354) | inactive: -0.169 |
| FAM193B (UniProt Q96PV7) | inactive: -0.17 |
| FAM20B (UniProt O75063) | inactive: 0.011 |
| FAM177A1 isoform 2 (UniProt Q8N128) | inactive: -0.006 |
| FAM192A (UniProt Q9GZU8) | inactive: -0.025 |
| F2RL3 (UniProt Q96RI0) | inactive: -0.035 |
| ERLIN2 (UniProt O94905) | inactive: -0.012 |
| FAM204A (UniProt Q9H8W3) | inactive: -0.057 |
| FADS1, A0A0A0MR51 | inactive: 0.054 |
| EZH2 isoform 2 (UniProt Q15910) | inactive: 0.018 |
| FAM193A, A0A1B0GVL4 | inactive: 0.065 |
| EXOC4 (UniProt Q96A65) | inactive: 0.009 |

Given bar-delimited: entries from further up.
Target | log2 fold change
FAM32A (UniProt Q9Y421) | inactive: -0.005
FAM76A isoform 3 (UniProt Q8TAV0) | inactive: 0.077

Further results

| Target | log2 fold change |
| --- | --- |
| EXOSC3 (UniProt Q9NQT5) | inactive: 0.019 |
| FADD (UniProt Q13158) | inactive: 0.065 |
| FAHD2A (UniProt Q96GK7) | inactive: 0.019 |
| EXD2 (UniProt Q9NVH0) | inactive: 0.039 |
| ETV4 (UniProt P43268) | inactive: -0.013 |
| ETFRF1 (UniProt Q6IPR1) | inactive: 0.03 |
| EXO1 (UniProt Q9UQ84) | inactive: 0.051 |
| FAM83D (UniProt Q9H4H8) | inactive: 0 |
| EXOSC7 (UniProt Q15024) | inactive: -0.003 |
| FAM117B (UniProt Q6P1L5) | inactive: 0.06 |
| EXOC8 (UniProt Q8IYI6) | inactive: 0.029 |
| FAM122B isoform 3 (UniProt Q7Z309) | inactive: 0.029 |
| FAM185A (UniProt Q8N0U4) | inactive: 0.343 |
| FAM162A (UniProt Q96A26) | inactive: 0.046 |
| F11R (UniProt Q9Y624) | inactive: 0.022 |
| EXOC3 (UniProt O60645) | inactive: 0.018 |
| FAM210B (UniProt Q96KR6) | inactive: -0.069 |
| FAM117A (UniProt Q9C073) | inactive: -0.029 |
| FAM207A (UniProt Q9NSI2) | inactive: -0.004 |
